Measured values published in patent US9556237B2 (priority 2012, dated 2017).
Entries after “also recorded” stand apart in the source; their conditions may differ. Read-outs that look alike come from different tables or passages of the source. Not every detail of the peptide structures is certain; ends, links or a residue may be inferred.

Sequences of proteins named here, by UniProt entry; tags and fusion partners are left off. Residues count along the entry.
UniProt P03522, 17-511 limits assumed: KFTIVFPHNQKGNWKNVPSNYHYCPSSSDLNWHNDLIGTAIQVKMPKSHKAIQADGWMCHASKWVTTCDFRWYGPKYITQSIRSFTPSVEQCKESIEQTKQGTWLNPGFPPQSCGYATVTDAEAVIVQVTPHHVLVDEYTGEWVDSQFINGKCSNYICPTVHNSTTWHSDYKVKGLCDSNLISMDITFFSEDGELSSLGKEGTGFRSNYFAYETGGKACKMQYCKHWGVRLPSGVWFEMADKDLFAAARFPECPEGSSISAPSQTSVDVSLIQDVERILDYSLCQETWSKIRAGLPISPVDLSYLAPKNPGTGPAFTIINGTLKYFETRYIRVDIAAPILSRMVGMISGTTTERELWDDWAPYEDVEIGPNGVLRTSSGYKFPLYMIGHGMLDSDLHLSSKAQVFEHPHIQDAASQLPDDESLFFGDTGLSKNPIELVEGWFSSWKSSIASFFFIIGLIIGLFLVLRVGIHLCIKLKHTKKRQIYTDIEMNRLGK

How the values were obtained:
RVFV-MP12 [1] = assay type: cell-based, Rift Valley fever virus
ANDV = assay type: cell-based
EBOV-eGFP = assay type: cell-based, Zaire ebolavirus
VSV glycoprotein G = VSV glycoprotein G (Vesicular stomatitis Indiana virus, UniProt P03522); assay type: cell-based; settings: pH 5.2
VSV-luc = assay type: cell-based, vesicular stomatitis virus
RVFV-Gc = RVFV-Gc (Rift valley fever virus, UniProt P21401); assay type: binding
EBOV = assay type: cell-based, Zaire ebolavirus
[2] = test system: RVFV glycoproteins Gn and Gc; assay type: cell-based, Rift Valley fever virus; settings: pH 5.2
RVFV-MP12 [3] = assay type: cell-based, Rift Valley fever virus; remark: listed apart in the source
VSV-G = VSV-G (Vesicular stomatitis Indiana virus, UniProt P03522); assay type: binding; settings: pH 5.2

CSCC[C@H](NC(=O)[C@H](CC(C)C)NC(=O)CNC(=O)[C@H](CO)NC(=O)[C@H](Cc1ccccc1)NC(=O)[C@H](Cc1c[nH]c2ccccc12)NC(=O)[C@H](CC(=O)O)NC(=O)[C@H](Cc1ccccc1)NC(=O)[C@H](Cc1ccccc1)NC(=O)[C@H](CC(N)=O)NC(=O)[C@@H](N)Cc1c[nH]c2ccccc12)C(=O)N[C@@H](CO)C(=O)N[C@@H](Cc1c[nH]c2ccccc12)C(=O)N[C@@H](Cc1ccccc1)C(=O)NCC(=O)NCC(=O)N1CCC[C@H]1C(=O)N[C@@H](CC(C)C)C(=O)N[C@@H](CCCCN)C(=O)N[C@@H](CC(C)C)C(=O)N[C@@H](Cc1ccc(O)cc1)C(=O)O [RVFV-5]
inhibition of RVFV-MP12 (plaque reduction) (RVFV-MP12 [1]): approximately 30%

CSCC[C@H](NC(=O)[C@H](CC(C)C)NC(=O)CNC(=O)[C@H](CO)NC(=O)[C@H](Cc1ccccc1)NC(=O)[C@H](Cc1c[nH]c2ccccc12)NC(=O)[C@H](CC(=O)O)NC(=O)[C@H](Cc1ccccc1)NC(=O)[C@H](Cc1ccccc1)NC(=O)[C@H](CC(N)=O)NC(=O)[C@@H](N)Cc1c[nH]c2ccccc12)C(=O)N[C@@H](CO)C(=O)N[C@@H](Cc1c[nH]c2ccccc12)C(=O)N[C@@H](Cc1ccccc1)C(=O)NCC(=O)NCC(=O)N1CCC[C@H]1C(=O)N[C@@H](CC(C)C)C(=O)N[C@@H](CCCCN)C(=O)O [RVFV-6, WNFFDWFSGLMSWFGGPLK]
inhibition of ANDV (plaque reduction) (ANDV): strong inhibition
inhibition of EBOV (GFP signal) (EBOV-eGFP): strong inhibition
inhibition of cell-cell fusion, VSV-G transfected cells (VSV glycoprotein G): significantly inhibited
dose-response inhibition of VSV-luc pseudovirus (VSV-luc): more potent inhibitor
precipitation of Gc from RVFV-MP12 (RVFV-Gc): found to precipitate Gc; also recorded: Gc was not precipitated
precipitation of Gc from RVFV-MP12 (RVFV-Gc; pH 5.2): Gc was detected both in the absence and presence of Triton X
interference with EBOV binding to permissive cells (viral RNA by real-time PCR) (EBOV): did not interfere
inhibition of cell-cell fusion, RVFV-GnGc transfected cells [2]: significantly inhibited
interference with RVFV binding to permissive cells (viral RNA by real-time PCR) (RVFV-MP12 [3]): did not interfere
peptide binding to VSV-G (VSV-G): Activation of the viral fusion process is required
